The values below come from PMC4121141, “Structural Basis for TatA Oligomerization: An NMR Study of Escherichia coli TatA Dimeric Structure” (PLoS ONE, 2014).

Results are given in words; binding and its absence hold for the method and conditions named.

For this experiment, the target named is Escherichia coli TatA, wild type, full length (Escherichia coli) (UniProt P69428). Nature of the experiment: condition: only at high detergent-to-protein molar ratio (DPC, DPR >200); NMR 1H-15N HSQC and solution NMR structure at high detergent-to-protein ratio; full-length TatA in DPC/dDPC micelles at high DPR (>200; 300), 35°C; one set of cross peaks; both purified.

B1: Escherichia coli TatA, wild type, full length (natural protein, UniProt P69428 1-89, looked up)
chain: MGGISIWQLLIIAVIVVLLFGTKKLGSIGSDLGASIKGFKKAMSDDEPKQDKTSQDADFTAKTIADKQADTNQEQAKTEDAKRHDKEQV
notes: TatA, Escherichia coli, 89 amino acids, one transmembrane helix (Ile6-Phe20) and one amphipathic helix (Lys24-Met43); 15N- or 13C/15N-labelled for NMR; also called wt-TatA; wild-type TatA; source: in C12E9 with Superdex 200 gel filtration for blue-native PAGE
Consider B1, for which the binding result is listed as “no binding”.
